At least one peptide structure holds a part that was inferred or is arguable (an end, a ring closure or a residue). Starred links: 1 amine or outer side, 2 acyl side, 3 side chain; linkers in the order of their positions; H or OH if unused. Positions of bridges follow the written chain, without caps; N, C: chain ends. Non-standard residues stand in square brackets, D forms with d. Residues, ends and D or L forms follow the SMILES beside them. X1 = CCC(C)C(CC(=O)[*:1])O[*:2]; Dab = NCC[C@H](N)C(=O)O
Assays:
Experiment in all cases: MIC, agar plate anti-microbial activity test
Assay type in all cases: cell-based
[1] = tested on: Clostridium sp ZSB-14; conditions: Medium B (TEP medium), 30° C., 24 hours
[2] = tested on: Pseudomonas aeruqinosa ATCC 10145; conditions: Pseudomonas aeruginosa ATCC 10145; comparison of Permetin A and AB-2 in the text, medium not stated
[3] = tested on: Clostridium sp ZSB-13; conditions: Medium B (TEP medium), 30° C., 24 hours

CCC(C)C1CC(=O)N[C@@H](CCN)C(=O)N[C@@H]([C@@H](C)CC)C(=O)N[C@@H](CCN)C(=O)N[C@H](Cc2ccccc2)C(=O)N[C@@H](CC(C)C)C(=O)N[C@@H](CCN)C(=O)N[C@H](C(C)C)C(=O)N[C@@H](CC(C)C)C(=O)N[C@@H](CO)C(=O)O1 (stereo partly drawn) [Permetin A, Nα-(3-hydroxy-4-methyl-1-oxohexyl)-L-α,γ-diaminobutyryl-L -isoleucyl-L-α,γ-diaminobutyryl-D-phenylalanyl-L-leucyl-L-.alph a.,γ-diaminobutyryl-D-valyl-L-leucyl-L-serine (9-1)-lactone] ([Dab]I[Dab][dF]L[Dab][dV]LS; linker N-C via X1)
Minimum Inhibitory Concentration (MIC) [1]: 25 mcq/ml | minimum inhibitory concentrations (MIC) [2]: 12.5 mcq/ml | Minimum Inhibitory Concentration (MIC) [3]: 25 mcq/ml
